Results from paper PMC11633745.

Amino acid sequences for entries named in this document (tags omitted). A change or cut given only in a name is not applied to a line headed by its entry. Residues count along the entry.
UniProt Q03164, residues 3694-3969: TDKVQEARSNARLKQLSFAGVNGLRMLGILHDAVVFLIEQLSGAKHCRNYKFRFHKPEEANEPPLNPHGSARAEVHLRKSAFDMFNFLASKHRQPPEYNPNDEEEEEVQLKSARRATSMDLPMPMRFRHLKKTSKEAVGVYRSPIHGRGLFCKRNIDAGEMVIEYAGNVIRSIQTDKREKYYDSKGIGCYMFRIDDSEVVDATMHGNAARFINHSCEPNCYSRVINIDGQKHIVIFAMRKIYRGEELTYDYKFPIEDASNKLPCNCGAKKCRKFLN
UniProt P23258: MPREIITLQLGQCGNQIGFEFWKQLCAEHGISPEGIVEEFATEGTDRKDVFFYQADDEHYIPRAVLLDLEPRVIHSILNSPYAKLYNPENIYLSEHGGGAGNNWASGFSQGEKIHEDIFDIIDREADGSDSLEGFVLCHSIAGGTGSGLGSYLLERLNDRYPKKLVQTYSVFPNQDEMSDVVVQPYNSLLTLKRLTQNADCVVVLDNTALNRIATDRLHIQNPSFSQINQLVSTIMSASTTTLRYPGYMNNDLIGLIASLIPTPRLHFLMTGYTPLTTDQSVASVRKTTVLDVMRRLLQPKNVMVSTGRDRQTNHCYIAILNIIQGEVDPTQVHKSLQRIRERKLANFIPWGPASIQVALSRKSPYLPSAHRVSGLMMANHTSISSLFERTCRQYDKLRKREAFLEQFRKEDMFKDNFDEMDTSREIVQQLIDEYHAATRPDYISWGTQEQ

Experiments:
[1] = target: GST-Cep72 (human) (UniProt Q9P209); test: pull-down; GST fusion protein bound to glutathione agarose beads incubated with HeLa whole-cell lysate for 3 hours, washed three times [15 mM tris (pH 7.4), 100 mM KCl, 0.02% NP-40, 1 mM DTT, 1 mM PMSF]; SDS-PAGE and Western blot; only the target purified
[2] = target: GST-MLLCD3 (3694 to 3969 amino acids) (human) (UniProt Q03164); test: as above
[3] = target: Cep72 (endogenous) (human (endogenous in HeLa)) (UniProt Q9P209); test: co-IP; endogenous proteins immunoprecipitated from precleared HeLa cell lysate with anti-MLLC, anti-WDR5 or anti-Cep72 overnight at 4°C, Protein A Sepharose beads; anti-immunoglobulin G as mock IP; Western blot

binding [1]: binds | binding [2]: binds | binding [3]: binds
Substance: γ-tubulin (endogenous) (from UniProt P23258)

Results are given in words; binding and its absence hold for the method and conditions named. In cells and extracts the contact can be indirect. Binding can be weak; no strength is given.
